Measurements published in PubChem BioAssay AID588590 (National Center for Advancing Translational Sciences (NCATS), 2011).
Out of some 390,000 compounds screened, about 4,000 (1%) were called active. The inconclusive results got no clear call from the source; some entries with a clear call stand among them for comparison. Calls come from the whole dose curve; as a rule, active = well fitted inhibition curve with a large enough effect; inconclusive = small, poorly fitted or top-dose-only effect, or another doubt; inactive = no such curve, though single readings can be large or run the other way. A potency beside an inconclusive call is a rough fit, not a confirmed value.

Chains of the proteins cited; added tags and fusions are not shown. Lines headed by an entry give the natural chain unless they say otherwise; changes in a name come on top.
UniProt Q9UNA4: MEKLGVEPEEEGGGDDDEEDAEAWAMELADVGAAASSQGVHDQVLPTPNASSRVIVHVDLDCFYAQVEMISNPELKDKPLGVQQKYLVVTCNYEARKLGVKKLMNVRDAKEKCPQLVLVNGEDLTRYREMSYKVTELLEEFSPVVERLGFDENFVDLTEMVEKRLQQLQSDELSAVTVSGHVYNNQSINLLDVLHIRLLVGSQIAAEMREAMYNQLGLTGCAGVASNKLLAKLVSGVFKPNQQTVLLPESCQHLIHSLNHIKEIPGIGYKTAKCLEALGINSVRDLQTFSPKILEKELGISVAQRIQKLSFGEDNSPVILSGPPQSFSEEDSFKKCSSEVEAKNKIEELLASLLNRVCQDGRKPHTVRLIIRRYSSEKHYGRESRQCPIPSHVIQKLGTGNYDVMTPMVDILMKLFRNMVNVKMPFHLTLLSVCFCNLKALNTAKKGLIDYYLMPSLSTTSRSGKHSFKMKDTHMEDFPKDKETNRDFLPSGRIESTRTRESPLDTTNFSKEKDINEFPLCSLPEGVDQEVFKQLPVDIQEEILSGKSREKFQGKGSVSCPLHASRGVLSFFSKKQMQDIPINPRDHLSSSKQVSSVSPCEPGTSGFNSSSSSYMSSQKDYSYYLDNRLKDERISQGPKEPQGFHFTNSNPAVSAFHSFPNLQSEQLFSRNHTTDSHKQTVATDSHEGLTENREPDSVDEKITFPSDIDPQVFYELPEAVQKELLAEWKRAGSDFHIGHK

Target: DNA polymerase iota (Homo sapiens) (UniProt Q9UNA4)
Experiment: qHTS for Inhibitors of Polymerase Iota
Details: Pol iota fluorescent replication assay, 10 min; series mostly up to 115 µM; activity, negative = inhibition: at the top concentration
Outline: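 Pol iota at 10 nM preincubated 15 min with compounds at room temperature; reaction started with fluorescent substrate, 50 nM final. Fluorescence read kinetically at 0 and 10 min; buffer-only wells as negative control.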
Potency is the fitted concentration of half-maximal effect.

Row | SMILES | Potency | activity, negative = inhibition
1 | CCC(C)Sc1cccc(-c2nc3ccccn3c2NCc2ccccc2)c1 (stereo unspecified) | inconclusive: 50.1 µM [inhibitor, partial curve, poor fit] | 
2 | Cc1cc(NS(=O)(=O)c2ccc(NC(=O)c3ccccc3F)cc2)no1 | inconclusive: 39.8 µM [inhibitor, single point] | 
3 | COc1ccc(C)cc1NC(=O)c1cc2c(=O)n(Cc3cccnc3)ccc2nc1C |  | inactive: 5.4%
4 | Cc1cccc(NNC(=S)Nc2c(C)cccc2C)c1 | inconclusive: 22.4 µM [inhibitor, partial curve, poor fit] | 
5 | Cc1ccc(C(=O)/C=C/N(C)C)o1 |  | inactive: 37.1%
6 | COc1cc(NC(=O)CSc2nnc3c(n2)[nH]c2ccc(OC)cc23)cc(OC)c1 |  | inactive: 8.34%
7 | COc1ccc(C(=O)Nc2nnc(SCc3cc(=O)n4cccc(C)c4n3)s2)cc1 |  | inactive: -8.9%
8 | Cc1cccc(CNC(=O)c2ccc3oc(=O)n(Cc4ccccc4)c3c2)c1 |  | inactive: 11.6%
9 | CCCOc1ccc(CNC(=O)CCCn2nc(C)c3sc4ccccc4c3c2=O)cc1 | inconclusive: 20 µM [inhibitor, partial curve, poor fit] | 
10 | CCCSc1ncc(Cl)c(C(=O)Nc2c(C(=O)Nc3ccc(OC)cc3)oc3ccccc23)n1 |  | inactive: 25.6%
11 | O=C1C(Cl)=C(NCCN2CCOCC2)C(=O)c2ccccc21 |  | inactive: 11.4%
12 | CCOc1ccc(NC(=O)CN(C)C(=O)CCCOc2ccc(Cl)c(C)c2)cc1OCC |  | inactive: 5.76%
13 | CC(C)(C)C(=O)NNC(=O)C1CC1(c1ccccc1)c1ccccc1 (stereo unspecified) | inconclusive: 100 µM [inhibitor, partial curve, poor fit] | 
14 | O=C1NN(c2cccc(Br)c2)C(=O)/C1=C/c1ccc(-c2cc([N+](=O)[O-])ccc2O)o1 | inconclusive: 15.8 µM [inhibitor, partial curve, poor fit] | 
15 | Cc1nnc(SCC(=O)Nc2nc(-c3ccccc3)cs2)n1N |  | inactive: -6.87% [at 58.9 µM]
16 | Cc1cc(C)cc(NC(=O)CSc2oc(-c3ccco3)nc2S(=O)(=O)c2ccc(Cl)cc2)c1 | inconclusive: 56.2 µM [inhibitor, partial curve, poor fit] | 
17 | O=C(Nc1ccc2ccccc2c1)c1nc(S(=O)(=O)Cc2ccccc2F)ncc1Cl |  | inactive: -4.26%
18 | COc1ccc(CS(=O)(=O)/C(Cl)=C(/Cl)C(=O)Nc2ccc(OC)nc2)cc1 | inconclusive: 11.2 µM [inhibitor, full curve, poor fit] | 
19 | Cc1cc2cc(CNC(=O)c3ccc(Br)o3)ccc2n1C | inconclusive: 31.6 µM [inhibitor, single point] | 
20 | c1ccc(SSc2ccccn2)nc1 | inconclusive: 22.4 µM [inhibitor, partial curve] | 
21 | O=C(C(c1ccccc1)N1CCOCC1)N1CCOCC1 (stereo unspecified) |  | inactive: -11.5%
22 | C/C=C\C=C/C(=O)Nc1cccc(C2=NOC3(C2)C[C@@H](C(N)=O)N(C(=O)COc2ccc(Cl)cc2)C3)c1 (stereo partly specified) | inconclusive: 25.1 µM [inhibitor, partial curve, poor fit] | 
23 | CC(=O)Nc1ccc(NC(=O)CSc2nnc3c4ccccc4n(C)c3n2)cc1 |  | inactive: 69.9%
24 | Cc1cc(C(=O)O)ccc1-n1c(C)cc(/C=C2\SC(=O)NC2=O)c1C | inconclusive: 44.7 µM [inhibitor, partial curve] | 

Row | SMILES | Potency | activity, negative = inhibition
25 | CC(=O)OCC1=C(C(=O)O)N2C(=O)C(NC(=O)C(C)Cn3cc(Cl)cn3)C2SC1 (stereo unspecified) | inconclusive: 17.8 µM [inhibitor, full curve, poor fit] | 
26 | CCCNC(=O)Nc1nc2ccccc2s1 |  | inactive: -12.5%
27 | COc1c(OC)c(O)c2c(=O)cc(-c3c(O)cccc3O)oc2c1OC | inconclusive: 25.1 µM [inhibitor, partial curve, poor fit] | 
28 | O=C(COC(=O)c1ccco1)Nc1nc2c(F)c(F)c(F)cc2s1 | inconclusive: 25.1 µM [inhibitor, full curve] | 
29 | Fc1cccc(CSc2nc3ncccc3[nH]2)c1 |  | inactive: 5.29%
30 | O=C(NCc1ccco1)c1ccc2c(c1)N(Cc1c(F)cccc1Cl)C(=O)c1ccccc1S2 | inconclusive: 39.8 µM [inhibitor, single point] | 
31 | CC(Sc1nc(-c2ccccc2)cc(C(F)(F)F)n1)C(=O)NCc1ccco1 (stereo unspecified) | inconclusive: 39.8 µM [inhibitor, single point] | 
32 | COc1ccc(-c2c(C)nn3c(C(F)(F)F)cc(-c4ccccc4)nc23)cc1 |  | inactive: -15%
33 | CCc1oc2c(C)c(O)ccc2c(=O)c1-c1ccc2ccccc2n1 |  | inactive: 33.4%
34 | COC(=O)c1ccc(-n2c(CCC(=O)O)ccc2-c2ccccc2)cc1 | inconclusive: 44.7 µM [inhibitor, partial curve, poor fit] | 
35 | Cc1ccc(/C=N/NC(=O)c2cc3ccccc3cc2O)o1 | active: 50.1 µM | 
36 | COc1cccc(/C=C/c2nc3ccccc3nc2/C=C/c2cccc(OC)c2OC)c1OC |  | inactive: 27.3%
37 | CCc1ccc(CNC(=O)c2cc3c(=O)n(Cc4cccs4)ccc3nc2C)cc1 | inconclusive: 89.1 µM [inhibitor, single point] | 
38 | CC(C)(C)c1ccc(C(=O)NCc2ccccc2)cc1 | inconclusive: 39.8 µM [inhibitor, single point] | 
39 | COc1ccc(CCNC(=O)C2CCN(S(=O)(=O)c3cccc4cccnc34)CC2)cc1OC | inconclusive: 50.1 µM [inhibitor, partial curve, poor fit] | 
40 | CSc1nnc(-c2cccs2)n1C | inconclusive: 89.1 µM [inhibitor, partial curve] | 
41 | CN(C)c1ccc(N=Cc2cccc3ccccc23)cc1 |  | inactive: 15.5%
42 | O=C(O)CCCN1C(=O)/C(=C\c2ccc(-c3nc4ccccc4s3)o2)SC1=S | inconclusive: 10 µM [inhibitor, full curve, poor fit] | 
43 | O=C(CCCOc1ccc(Cl)cc1Cl)Nc1ccccn1 |  | inactive: 74.6%
44 | CCOc1ccc(N=C(NC#N)SC)cc1 | inconclusive: 112 µM [inhibitor, single point] | 
45 | COC(=O)C1=C(C(=O)OC)[C@@H]2N(C)c3ccc(OC)cc3[C@@]23C[C@@H](C(=O)OC)N(C(=O)c2ccc(Br)cc2)C3=N1 | inconclusive: 28.2 µM [inhibitor, partial curve, poor fit] | 
46 | O=C(Cc1ccc(Cl)c(Cl)c1)OCC(=O)c1ccc[nH]1 | inconclusive: 28.2 µM [inhibitor, partial curve, poor fit] | 
47 | N#Cc1c(Nc2ccccc2C(F)(F)F)s[nH]c1=O | inconclusive: 31.6 µM [inhibitor, single point] | 
48 | O=C(CSc1nc(O)c(Cc2ccccc2)c(=O)[nH]1)Nc1nc2c(s1)CCCC2 | inconclusive: 31.6 µM [inhibitor, full curve] | 

Row | SMILES | Potency | activity, negative = inhibition
49 | Cc1ccc2nc(/C(C#N)=C\c3ccc(N4CCOCC4)o3)[nH]c2c1 | inconclusive: 22.4 µM [inhibitor, partial curve] | 
50 | CC(C)(C)c1[nH]nc2c1C(c1cccnc1)C(C#N)=C(N)O2 (stereo unspecified) |  | inactive: 12.7%
51 | CCC(=O)Nc1ccc(C(=O)CSc2nc(N)cc(N)n2)cc1 |  | inactive: 27.2%
52 | O=C(Nc1ccccc1O)c1ccc2c(c1)C(=O)N(Cc1ccco1)C2=O | inconclusive: 56.2 µM [inhibitor, partial curve, poor fit] | 
53 | COc1ccc(-c2nc3scc(CCNC(=O)c4cccc(Br)c4)n3n2)cc1 |  | inactive: 4.26%
54 | COCCn1c(SCC(=O)Nc2sc(C)c(C)c2C#N)nnc1-c1ccc(OC)cc1 |  | inactive: 4.39%
55 | CCOc1cccc2c1Oc1nc(-c3ccccc3)nc(SCC(=O)Nc3ccc(F)cc3)c1C2 |  | inactive: 30.4%
56 | Cc1ccc(C(=O)Nc2ccccc2C(=O)NCc2ccco2)cc1S(=O)(=O)N1CCCCC1 |  | inactive: -0.741%
57 | Cc1ccc(S(=O)(=O)/N=C(/Nc2ccc3[nH]c(=O)[nH]c3c2)c2ccccc2)cc1 | inconclusive: 100 µM [inhibitor, partial curve, poor fit] | 
58 | NS(=O)(=O)c1ccc(NC=C2C(=O)OC3(CCCCC3)OC2=O)cc1 | inconclusive: 89.1 µM [inhibitor, partial curve, poor fit] | 
59 | COc1ccc(C(=O)NC(=S)NCc2ccco2)cc1 | inconclusive: 31.6 µM [inhibitor, single point] | 
60 | CC1CCCCC1NS(=O)(=O)c1ccc(S(=O)(=O)NCc2ccncc2)cc1 (stereo unspecified) | inconclusive: 3.16 µM [inhibitor, full curve] | 
61 | COc1ccc(/C=C2/CC/C(=C\c3ccc(OC)c(OC)c3OC)C2=O)c(OC)c1OC |  | inactive: 9.2%
62 | Cc1cc(SCc2cccc([N+](=O)[O-])c2)nc(=O)[nH]1 | inconclusive: 56.2 µM [inhibitor, partial curve, poor fit] | 
63 | OC(c1ccccc1)C(NCCNCc1ccccc1)c1ccccc1 (stereo unspecified) | inconclusive: 2.24 µM [inhibitor, partial curve, poor fit] | 
64 | COCCNC(=O)C1(S(=O)(=O)c2ccccc2)CC=CC1 | inconclusive: 89.1 µM [inhibitor, single point] | 
65 | COc1cc(CCC(=O)Nc2cccc(S(=O)(=O)N(C)C)c2)cc(OC)c1OC |  | inactive: 20.8%
66 | COc1cc(N)c(C(=O)c2nccc3cc(OC)c(OC)cc23)cc1OC |  | inactive: 234%
67 | O=C(O)C1=C(C(=O)O)C2C=CC1C2 | inconclusive: 25.1 µM [inhibitor, full curve] | 
68 | CCCCn1c(SCC(=O)Nc2cc(C)on2)nc2cc(S(N)(=O)=O)ccc21 | inconclusive: 39.8 µM [inhibitor, partial curve, poor fit] | 
69 | CC(=O)Nc1ccc(NC(=O)C2(c3cccs3)CCOCC2)cc1 |  | inactive: -1.79%
70 | COC(=O)c1cc(=O)n2c(-c3ccccc3)csc2n1 |  | inactive: 9.94%
71 | CCc1nc(SCc2cc(=O)[nH]c3ccccc23)c2c(C)c(C)sc2n1 | inconclusive: 31.6 µM [inhibitor, full curve] | 

16 entries from above in another layout.
Row	SMILES	Potency	activity, negative = inhibition
18	COc1ccc(CS(=O)(=O)/C(Cl)=C(/Cl)C(=O)Nc2ccc(OC)nc2)cc1	inconclusive: 11.2 µM [inhibitor, full curve, poor fit]	
19	Cc1cc2cc(CNC(=O)c3ccc(Br)o3)ccc2n1C	inconclusive: 31.6 µM [inhibitor, single point]	
20	c1ccc(SSc2ccccn2)nc1	inconclusive: 22.4 µM [inhibitor, partial curve]	
21	O=C(C(c1ccccc1)N1CCOCC1)N1CCOCC1 (stereo unspecified)		inactive: -11.5%
22	C/C=C\C=C/C(=O)Nc1cccc(C2=NOC3(C2)C[C@@H](C(N)=O)N(C(=O)COc2ccc(Cl)cc2)C3)c1 (stereo partly specified)	inconclusive: 25.1 µM [inhibitor, partial curve, poor fit]	
23	CC(=O)Nc1ccc(NC(=O)CSc2nnc3c4ccccc4n(C)c3n2)cc1		inactive: 69.9%
24	Cc1cc(C(=O)O)ccc1-n1c(C)cc(/C=C2\SC(=O)NC2=O)c1C	inconclusive: 44.7 µM [inhibitor, partial curve]	
25	CC(=O)OCC1=C(C(=O)O)N2C(=O)C(NC(=O)C(C)Cn3cc(Cl)cn3)C2SC1 (stereo unspecified)	inconclusive: 17.8 µM [inhibitor, full curve, poor fit]	
26	CCCNC(=O)Nc1nc2ccccc2s1		inactive: -12.5%
27	COc1c(OC)c(O)c2c(=O)cc(-c3c(O)cccc3O)oc2c1OC	inconclusive: 25.1 µM [inhibitor, partial curve, poor fit]	
28	O=C(COC(=O)c1ccco1)Nc1nc2c(F)c(F)c(F)cc2s1	inconclusive: 25.1 µM [inhibitor, full curve]	
29	Fc1cccc(CSc2nc3ncccc3[nH]2)c1		inactive: 5.29%
30	O=C(NCc1ccco1)c1ccc2c(c1)N(Cc1c(F)cccc1Cl)C(=O)c1ccccc1S2	inconclusive: 39.8 µM [inhibitor, single point]	
31	CC(Sc1nc(-c2ccccc2)cc(C(F)(F)F)n1)C(=O)NCc1ccco1 (stereo unspecified)	inconclusive: 39.8 µM [inhibitor, single point]	
32	COc1ccc(-c2c(C)nn3c(C(F)(F)F)cc(-c4ccccc4)nc23)cc1		inactive: -15%
33	CCc1oc2c(C)c(O)ccc2c(=O)c1-c1ccc2ccccc2n1		inactive: 33.4%
